Laboratory results published in article PMC4234379.
No signal at the amounts used counts as a negative. Protein sequences can lack the tags named with them. Construct, isoform or probe ends are uncertain for at least one entry.

Target: T1, mTERF15-strep (lacking N-terminal 34 aa) del1-34 (Arabidopsis thaliana) (UniProt Q9C6A1)
T1 sequence (looked up): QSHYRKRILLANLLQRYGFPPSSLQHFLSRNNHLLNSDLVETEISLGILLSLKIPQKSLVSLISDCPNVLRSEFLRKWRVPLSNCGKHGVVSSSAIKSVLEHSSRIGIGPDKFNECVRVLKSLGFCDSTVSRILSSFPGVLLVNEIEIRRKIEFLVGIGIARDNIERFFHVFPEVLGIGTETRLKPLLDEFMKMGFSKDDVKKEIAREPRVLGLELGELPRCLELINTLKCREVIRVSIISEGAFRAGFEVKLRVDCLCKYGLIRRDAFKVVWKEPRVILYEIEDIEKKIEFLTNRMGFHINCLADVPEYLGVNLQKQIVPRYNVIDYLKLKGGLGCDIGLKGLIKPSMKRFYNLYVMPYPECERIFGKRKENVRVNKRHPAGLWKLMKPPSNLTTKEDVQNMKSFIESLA
Assay: EMSA
Settings: 0-20 nM protein, 100 nM RNA, heparin, EMSA: 20 mM Tris/HCl pH 7.5, 180 mM NaCl, 2 mM DTT, 17 ug/ul BSA, 0.5 mM EDTA, 20 ug/ml heparin, 30 min, room temperature, recombinant protein, residues 35-445, protein details: Strep tag (pET52b), label: 32P (5' end, T4 PNK), probe letters rebuilt from the primers and the genome

Sequence | binding result | binding result (dose-dependent)
GAAUACGCGUGUUAUCUGAAGGGAGCACGCUUUUUCGACCGCGGUGCUAUGAUUGCCGGAGCCUCUCCUCGUUCCGCCCGCUGGCCUAUUGGGAUAGCAGCCUGCGGCCUUUGCCUGCCCAUUAGAAUAAUAAUCAAAAAUUCCGGCUCGGCCCGGGAAAGCGCUGGCAACAACAGAAAGGAAGGGGUCCAUGUAGCUGCUGCGCCCGCCCCUCUUCUUAGUCAAUGGGGCAGCAGGUUCGGCAUCUACUAGAAAAGAGAGAAUCCACUUCAGAAACCACACCUCGGCUAGGCAGCGUGUGGAAUGGCCGAGAGCGGACCUUUUUGGAUAUAUAAUCCAAGUCGAGAGUGGAGUUACAGGAACAGCCGUCUGAUGGAAAAAAACUUUCACGUUCGGUUCAGAGAGCACUUUUUUCGUUGAGAAUUCCUCGUUCCCUUUCGUGUGAAUUCCCCAGUGGCGAAUUUCAAACUUGUGGGUCUAUUCAAUCUCUCGAGCCCCGAAGAAAACCCCCUCCCCC [nad2 intron 3 Fragment 5] | no binding | 
GAAUACGGGCGGCUGUAGGACGGACGGCCGCCUAUAGGUGGUAGGGUAGGGUGGGUGGUACCGCUCAGAUUGCGGCCAAUCUUCCUAACCGCGCGCGGGCCGGGCUUAGAGCGAGUGAAACUCAUCACUACCUCGUAAGGGCAUUGAGACCAUAGCAUGUUACACGAGGAAAAAAAACCCUUGUAGUGUUGUCACACAGCUGCCCGCCUAGAAGAGUCACUCGCUCUGUAGUGUUGUCACACAAGAUAAGCACGUCGCCCGCCUGCUGGCCGGGCGAAUCGAAGUUCUCUUCCGGUCAACUGUCCACCCAGUCAAGUGCAAAAAACACAGUAGAAUCACGCAACGCACGCUACUGGUGUGCUUCCUGCCCGCGAGGAAAGAAAGAAGAGCGACAAGGUUGAGUUCAGAUUUGACUGUUUGCAGCAUGGGAGCAGAUUACCCAAAAAAUCCCUGGGAACAAUGAAAAAAAAAGAUAUCUCGGUAACAAAAACCAUAGGGGGCUGUAUUGGCGAGAUCCAACGGUGAACAG [nad2 intron 3 Fragment 1] |  | binds
